{"source": "PubChem BioAssay AID1347076", "about": "(National Center for Advancing Translational Sciences (NCATS), 2019)", "note": "Values joined by “and” are separate entries in the source; they are usually repeats but may differ in a detail not shown here. Equal values may be shown once. Screen size: about 400,000 compounds; about 13,000 (3.2%) were called active. Inconclusive results, whose numbers are uncertain, are shown with a selection of clear calls. Calls follow the shape of the dose curve; as a rule, active = well fitted cell-killing curve with a large enough effect; inconclusive = small, poorly fitted or top-dose-only effect, or effect the other way; inactive = flat fitted curve, though single readings scatter. Where the call is inconclusive, the potency comes from a doubtful curve fit. Potency is read from the fitted curve at half-maximal effect."}
{"assay": "qHTS assay for MDR1-selective chemotherapeutics: Primary screen using the drug-selected MDR subline cells KB-V1; also: nearly all actives have a fitted effect of over 60% in size", "details": "KB-V1 MDR cells viability, CellTiter-Glo, 72 h; series mostly up to 46.1 µM", "in_short": "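KB-V1, DMEM (no phenol red) + 10% FBS; cpd pin-transferred, titration series; 72 h, 37 degrees C; CellTiter-Glo, luminescence. Data normalized, curve-fit.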"}
{"smiles": "C=CCn1c(C)cc(C(=O)CSc2nc3ccccc3c(=O)[nH]2)c1C", "Potency": "inconclusive: 10.3 µM [cytotoxic, partial curve]"}
{"smiles": "CC(NC(=O)/C=C/c1cnc2ccccc2n1)C12CC3CC(CC(C3)C1)C2", "note": "(stereo not given)", "Potency": "inconclusive: 18.4 µM [cytotoxic, partial curve, poor fit]"}
{"smiles": "CCN1CCn2c3c(c4cc(Cl)ccc42)CCCC31", "note": "(stereo not given)", "Potency": "inactive"}
{"smiles": "COC(=O)COc1ccc(S(=O)(=O)N2CCCCC2)cc1[N+](=O)[O-]", "Potency": "inactive"}
{"smiles": "CCC(=O)N(CCc1ccc(OC)c(OC)c1)Cc1cc2ccc(C)cc2n2nnnc12", "Potency": "inconclusive: 29.1 µM [cytotoxic, single point]"}
{"smiles": "Cc1ccccc1NC(=O)c1onc2c1CCCC2", "Potency": "inconclusive: 16.4 µM [cytotoxic, partial curve, poor fit]"}
{"smiles": "CCC(C)(C)C1CCC2(CC1)NC(=O)N(CC(=O)N(C)Cc1ccc(OC(F)F)cc1)C2=O", "note": "(stereo not given)", "Potency": "inconclusive: 2.91 µM [cytotoxic, full curve]"}
{"smiles": "Cc1ccc(OCCNc2cc(N3CCN(CCO)CC3)ccc2[N+](=O)[O-])cc1C", "Potency": "inconclusive: 20.6 µM [cytotoxic, single point]"}
{"smiles": "OCC1OC(n2ccc3c(NO)ncnc32)C(O)C1O", "note": "(stereo not given)", "Potency": "active: 0.517 µM"}
{"smiles": "C=CCC1Cc2c(Br)cccc2C(CC=C)N1", "note": "(stereo not given)", "Potency": "inactive"}
{"smiles": "CCOc1cc(CN2CCN(c3cccc(C(F)(F)F)c3)CC2)ccc1O", "Potency": "active: 16.4 µM"}
{"smiles": "Cn1c(=O)cc(OCCCC(=O)Nc2cccc(Cl)c2)c2ccccc21", "Potency": "inconclusive: 20.6 µM [cytotoxic, single point]"}
{"smiles": "CCCC(=O)Nc1ccc(NC(=S)NC(=O)c2cccs2)cc1", "Potency": "inconclusive: 29.1 µM [cytotoxic, single point]"}
{"smiles": "O=[N+]([O-])c1ccc(Nc2ccccc2F)nc1", "Potency": "inconclusive: 18.4 µM [cytotoxic, partial curve, poor fit]"}
{"smiles": "COC(=O)C1=C(C(=O)OC)[C@@H]2N(Cc3ccccc3)c3ccccc3[C@@]23C[C@@H](C(=O)OC)N(C(=O)c2ccc(Br)cc2)C3=N1", "Potency": "inconclusive: 18.4 µM [cytotoxic, single point]"}
{"smiles": "CC(=O)c1cccc(NC(=O)CCc2nnc3ccc(N4CCOCC4)nn23)c1", "Potency": "inconclusive: 0.058 µM [rising, full curve, poor fit]"}
{"smiles": "COc1cccc(C2=Cc3ccc(F)cc3C(CC(C)=O)N2c2ccc(-c3cncnc3)cc2)c1", "note": "(stereo not given)", "Potency": "inconclusive: 20.6 µM [cytotoxic, partial curve]"}
{"smiles": "COc1ccc(/C=N/OCC(=O)NC(c2ccccc2)c2ccccc2)c(OC)c1", "Potency": "active: 23.1 µM"}
{"smiles": "O=C1NC(c2ccccc2)(C(F)(F)F)C(=O)N1Cc1cccnc1", "note": "(stereo not given)", "Potency": "inconclusive: 29.1 µM [cytotoxic, single point]"}
{"smiles": "CCNc1nc(NC(C)(C)C)nc(N(C#N)CC)n1", "Potency": "inconclusive: 18.4 µM [cytotoxic, partial curve]"}
{"smiles": "CCc1ccc(CC(=S)N2CCOCC2)cc1", "Potency": "inconclusive: 0.0046 µM [cytotoxic, full curve, poor fit]"}
{"smiles": "O=c1cc(CN2CCCC2)c2c(ccc3ccccc32)o1", "Potency": "inactive"}
{"smiles": "COc1ccc(-c2csc(NC(=O)c3ccc(OCC(=O)N4CCOCC4)c(OC)c3)n2)cc1", "Potency": "inconclusive: 20.6 µM [cytotoxic, single point]"}
{"smiles": "CC1(C)CC(=O)C=C(c2ccc(-c3ccccc3)cc2)C1=O", "Potency": "inactive"}
{"smiles": "O=C(Nc1nnc(-c2ccco2)o1)c1ccc(S(=O)(=O)N2CCCCC2)cc1", "Potency": "inconclusive: 4.61 µM [cytotoxic, partial curve]"}
{"smiles": "CN(C)CCNc1nc2sc3c(c2c(=O)n1CCc1ccccc1)CCCCC3", "Potency": "active: 20.6 µM"}
{"smiles": "CCOC(=O)c1ccc2nc(NC(=O)c3ccco3)sc2c1", "Potency": "inconclusive: 29.1 µM [cytotoxic, single point]"}
{"smiles": "N#CC1=C(N)Oc2cc(N)ccc2C1c1cc(Br)cs1", "note": "(stereo not given)", "Potency": "inconclusive: 6.51 µM [cytotoxic, partial curve]"}
{"smiles": "CCN(CC)c1ccc(/C=N/NC(=O)OC)c(O)c1", "Potency": "inconclusive: 16.4 µM [cytotoxic, partial curve]"}
{"smiles": "CCN1C(=O)CC(c2ccccc2)N(C2CCCC2)c2nc(Nc3ccc(C(=O)NC4CCN(C)CC4)cc3OC)ncc21", "note": "(stereo not given)", "Potency": "inconclusive: 20.6 µM [cytotoxic, single point]"}
{"smiles": "Cc1ccc2nc(-c3ccco3)c(Nc3ccccc3)n2c1", "Potency": "active: 10.3 µM"}
{"smiles": "CCn1cc(C(=O)NCc2ccco2)c(=O)c2cc(S(=O)(=O)N3CCC(C)CC3)ccc21", "Potency": "active: 5.8 µM"}
{"smiles": "c1ccc2oc(-c3csc(NCC4CCCO4)n3)cc2c1", "note": "(stereo not given)", "Potency": "inconclusive: 7.31 µM [cytotoxic, partial curve]"}
{"smiles": "CCOc1ccc(CNC(=O)CCc2c(C)nn(-c3ccc(N4CCOCC4)nn3)c2C)cc1", "Potency": "inactive"}
{"smiles": "O=CNc1cc(-c2ccoc2)cn2c(-c3ccc(F)cc3)cnc12", "Potency": "inconclusive: 20.6 µM [cytotoxic, single point]"}
{"smiles": "O=c1c2ccccc2c(/C=N/c2ncn[nH]2)c(O)n1Cc1ccccc1", "Potency": "inconclusive: 29.1 µM [cytotoxic, single point]"}
{"smiles": "COc1ccc(CCNC(=O)Cc2cc(=O)[nH]c(=O)[nH]2)cc1OC", "Potency": "inactive"}
{"smiles": "CCOC(=O)NN1C(=O)c2ccccc2NC1c1ccc(OC)c(OC)c1", "note": "(stereo not given)", "Potency": "inactive"}
{"smiles": "Cc1ccc(S(=O)(=O)N2CCC(c3nnc(-c4cccc(C)c4)o3)CC2)cc1", "Potency": "inconclusive: 29.1 µM [cytotoxic, single point]"}
{"smiles": "Cc1cc(C(=O)C(=O)O)c(C)n1-c1ccc(Cl)cc1", "Potency": "inconclusive: 29.1 µM [rising, single point]"}
{"smiles": "O=C(C[n+]1cccc2cccc(O)c21)c1ccccc1", "Potency": "inactive"}
{"smiles": "Cc1c(O)ccc2c(CN(C)Cc3ccccc3)cc(=O)oc12", "Potency": "inactive"}
{"smiles": "O=C(NN=Cc1ccc(F)c(F)c1)c1ccc(NS(=O)(=O)c2cccs2)cc1", "Potency": "inconclusive: 18.4 µM [cytotoxic, partial curve, poor fit]"}
{"smiles": "Cc1ccc(C(=O)O/N=C/c2c(N3CCOCC3)n(C)c3ccccc23)cc1", "Potency": "inconclusive: 3.26 µM [cytotoxic, partial curve, poor fit]"}
{"smiles": "Cc1c(Cl)cccc1NC(=O)Nc1cnccn1", "Potency": "inconclusive: 29.1 µM [cytotoxic, single point]"}
{"smiles": "CCOC(=O)c1c(-c2ccc(OC)cc2)csc1/N=C/C1C(=O)CCCC1=O", "Potency": "inactive"}
{"smiles": "Cc1ccc2c(CC(=O)O)coc2c1", "Potency": "inconclusive: 29.1 µM [rising, single point]"}
{"smiles": "CCOc1ccccc1OCC(=O)NC1CCSc2ccccc21", "note": "(stereo not given)", "Potency": "inconclusive: 20.6 µM [cytotoxic, single point]"}
{"smiles": "O=C1[C@H](Cc2ccccc2)NC/C=C\\C[C@H](c2ccco2)N1Cc1ccccc1", "Potency": "inconclusive: 18.4 µM [cytotoxic, partial curve]"}
{"smiles": "COc1cccc(CNC(=O)c2ccc3c(Cl)c4c(nc3c2)CCCC4)c1", "Potency": "inactive"}
{"smiles": "COc1ccc(C(C)(O)c2nc(-c3cccs3)cs2)cc1", "note": "(stereo not given)", "Potency": "inconclusive: 29.1 µM [cytotoxic, single point]"}
{"smiles": "CC1(C(=O)Nc2cccc3c2CCCC3)CCN1C(=O)C1(c2ccc(Cl)cc2)CC1", "note": "(stereo not given)", "Potency": "inconclusive: 20.6 µM [cytotoxic, partial curve, poor fit]"}
{"smiles": "C=CCn1c(SCC(=O)N2c3ccccc3Sc3ccccc32)nnc1-c1ccco1", "Potency": "inconclusive: 5.8 µM [cytotoxic, partial curve]"}
{"smiles": "CCC(C(=O)OCC(=O)Nc1cc(Cl)cc(Cl)c1)c1ccccc1", "note": "(stereo not given)", "Potency": "inconclusive: 29.1 µM [rising, single point]"}
{"smiles": "O=c1c(O)c(-c2cccs2)oc2ccccc12", "Potency": "inconclusive: 20.6 µM [cytotoxic, partial curve, poor fit]"}
{"smiles": "O=C(NCc1cccc(Br)c1)C1CC2Cn3c(nc4ccccc43)C2N1c1ccccc1", "note": "(stereo not given)", "Potency": "inactive"}
{"smiles": "O=C(NC(=S)Nc1ccc(N2CCOCC2)c(Cl)c1)c1cncc(Br)c1", "Potency": "inconclusive: 20.6 µM [rising, single point]"}
{"smiles": "COc1ccc(CN2CC[C@H]3C=CC[C@@H](C(=O)Nc4ccccc4)[C@H]3C2=O)cc1OC", "Potency": "inconclusive: 7.31 µM [cytotoxic, partial curve] and inconclusive: 5.8 µM [cytotoxic, partial curve]"}
{"smiles": "O=C(O)COc1ccc(/C=N/NC(=O)c2cccc3ccccc23)cc1", "Potency": "inconclusive: 29.1 µM [rising, single point]"}
{"smiles": "COc1cc(-c2nc(-c3ccccc3)c(-c3ccc(F)cc3)[nH]2)cc2c1OCO2", "Potency": "inconclusive: 2.31 µM [cytotoxic, full curve, poor fit]"}
{"smiles": "CCOc1ccc(Br)cc1S(=O)(=O)NC1CCCC1", "Potency": "active: 16.4 µM"}
{"smiles": "Cc1ccc(C2CC2c2n[nH]c(=S)n2-c2ccc(Cl)cc2)cc1", "note": "(stereo not given)", "Potency": "active: 16.4 µM"}
{"smiles": "Cc1cccc(S(=O)(=O)c2c(N)n(-c3ccccc3)c3nc4ccccc4nc23)c1", "Potency": "active: 2.91 µM"}
{"smiles": "CCOC(=O)C(CCSC)Nc1nc(Cl)nc(Nc2ccc(Cl)cc2)n1", "note": "(stereo not given)", "Potency": "inactive"}
{"smiles": "CC(=O)c1c(C)[nH]c(C(=O)Nc2ccccc2N2CCOCC2)c1C", "Potency": "inactive"}
{"smiles": "O=C(NC(=S)Nc1ccc(N2CCOCC2)cc1)c1ccccc1", "Potency": "inactive"}
{"smiles": "Cc1ccc(S(=O)(=O)Nc2ccc(S(=O)(=O)N3CCCC3)cc2)cc1", "Potency": "inconclusive: 32.6 µM [cytotoxic, single point]"}
{"smiles": "CCn1c(C)c(C(C)=O)c(N2CCCCC2)nc1=S", "Potency": "inactive"}
{"smiles": "NNC(=O)c1cc2cc(Oc3ccccc3)ccc2[nH]1", "Potency": "inactive"}
